Reference: PubChem BioAssay AID504834 (National Center for Advancing Translational Sciences (NCATS), 2011)
Out of some 320,000 compounds screened, about 22,000 (6.9%) were called active. Inconclusive results, whose numbers are uncertain, are shown with a selection of clear calls. Calls come from the whole dose curve; as a rule, active = well fitted inhibition curve with a large enough effect; inconclusive = small, poorly fitted or top-dose-only effect, or another doubt; inactive = no such curve, though single readings can be large or run the other way. Potencies beside an inconclusive call are fits to weak or partial responses and may not hold up.

Assay: Primary qHTS for delayed death inhibitors of the malarial parasite plastid, 96 hour incubation
Conditions: P. falciparum luciferase reporter growth; series mostly up to 28.7 µM
How it was run: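 Infected RBCs, 2% Hct / 0.05% parasitemia final; luciferase-reporter P. falciparum; cpd 96 h, 37 C, 5% CO2; luciferase detection reagent; luminescence.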
Potency is the fitted concentration of half-maximal effect.

Row | Compound | Potency
1 | O=C(NCc1nnnn1-c1ccc(F)c(F)c1)c1ccc2c(c1)OCO2 | inactive
2 | Cc1ccc(/C=C/C(=O)N2CCN(S(=O)(=O)c3cccs3)CC2)o1 | inconclusive: 18.5 µM [inhibitor, single point]
3 | COc1cccc(C(=O)NC(C)C(c2cccs2)N2CCOCC2)c1 (stereo not given) | inconclusive: 18.5 µM [inhibitor, partial curve, poor fit]
4 | O=S(=O)(Cc1ccccc1)N(O)c1ccccc1 | inactive
5 | CN(CC(=O)O)S(=O)(=O)c1ccc2oc3ccccc3c2c1 | inactive
6 | CC(=O)C1C(c2ccccc2)c2c(n[nH]c2C)CC1(C)O (stereo not given) | inconclusive: 18.5 µM [inhibitor, single point]
7 | COC(=O)c1ccc(OC(=O)CS(=O)c2ccccc2[N+](=O)[O-])cc1 (stereo not given) | inactive
8 | Cc1onc(-c2ccccc2)c1C(=O)Nc1ccc(-c2nnc3n2CCCCC3)cc1 | inconclusive: 10.4 µM [inhibitor, single point]
9 | NC(=O)c1cc([N+](=O)[O-])ccc1NCc1cccc2ccccc12 | inconclusive: 10.4 µM [inhibitor, single point]
10 | COCCCNC(=O)CNC(=S)N(Cc1ccccc1)Cc1cccnc1 | active: 10.4 µM
11 | COc1ccc([C@H]2CC(=O)C=C(c3cc(C)ccc3OC)C2)cc1 | inconclusive: 18.5 µM [inhibitor, single point]
12 | O=C(NC(C(=O)c1ccccc1)N1CCOCC1)c1cccs1 (stereo not given) | active: 11.7 µM
13 | Cc1[nH]nc(-c2ccc(OCc3cnn(-c4ccccc4)c3)c(C)c2O)c1Oc1ccccc1 | inconclusive: 23.3 µM [inhibitor, partial curve, poor fit]
14 | Cc1cccc(/C=N/c2sc3c(c2C#N)CCN(Cc2ccccc2)C3)c1O | inconclusive: 10.4 µM [inhibitor, partial curve, poor fit]
15 | CCN1CCCC1CNCc1ccc(Cl)cc1Cl (stereo not given) | inconclusive: 20.8 µM [inhibitor, partial curve, poor fit]
16 | CCOC(=O)C1CCCn2c1nc1sc3c(c1c2=O)CCCC3 (stereo not given) | inconclusive: 2.94 µM [inhibitor, partial curve, poor fit]
17 | O=C(NN=C1CCCC1)c1[nH]c2ccc(Br)cc2c1-c1ccccc1 | inconclusive: 13.1 µM [inhibitor, single point]
18 | O=C(N/N=C/c1[nH]c2ccccc2c1Cl)c1cccc(Br)c1 | active: 11.7 µM
19 | O=C(CSC1c2ccccc2-c2ccccc21)N/N=C/c1ccccc1C(=O)O | inconclusive: 2.33 µM [inhibitor, partial curve, poor fit]
20 | O=C1N=C(N2CCCCC2)S/C1=C\c1cn[nH]c1-c1ccccc1 | inconclusive: 4.15 µM [inhibitor, partial curve]
21 | COc1ccc(NC(=O)Cn2nc(C)c([N+](=O)[O-])c2C)cn1 | inconclusive: 16.5 µM [inhibitor, single point]
22 | COc1cccc(N2CCN(C(=O)c3cc4cc(Cl)ccc4[nH]3)CC2)c1 | inconclusive: 18.5 µM [inhibitor, single point]

As entered above:
Value for O=C(NCc1nnnn1-c1ccc(F)c(F)c1)c1ccc2c(c1)OCO2 under Potency: inactive
Value for O=C(NN=C1CCCC1)c1[nH]c2ccc(Br)cc2c1-c1ccccc1 under Potency: inconclusive: 13.1 µM [inhibitor, single point]

Next results follow:

Row | Compound | Potency
23 | COc1ccc(NC(=O)CN(C)C(=O)CSCc2ccc(C)cc2)cc1 | inconclusive: 18.5 µM [inhibitor, single point]
24 | Cc1ccc(Nc2ccc(C(=O)N3CCCC3)cn2)c(C)c1 | inconclusive: 13.1 µM [inhibitor, single point]
25 | CCOc1ccc(N2C(=O)CC(Cc3ccc(Br)cc3)C2=O)cc1 (stereo not given) | inconclusive: 18.5 µM [inhibitor, single point]
26 | C=CCNC(=O)C1CC(=O)N(c2ccc(OCC(=O)Nc3c(C)cccc3C)cc2)C1 (stereo not given) | inactive
27 | COc1cccc(C(=O)Nc2cc(OC)ccc2NC(=O)c2ccco2)c1 | inconclusive: 18.5 µM [inhibitor, single point]
28 | CNS(=O)(=O)c1cccc(C(=O)OCC(=O)c2ccc(S(=O)(=O)N3CCCCC3)cc2)c1 | inconclusive: 8.28 µM [inhibitor, partial curve]
29 | O=C1Cc2ccccc2C(c2c(Cl)cccc2Cl)N1 (stereo not given) | inconclusive: 18.5 µM [inhibitor, single point]
30 | CCCCNc1nc2c(c(=O)n(C)c(=O)n2C)n1Cc1cccc(OC)c1 | inconclusive: 14.7 µM [inhibitor, partial curve, poor fit]
31 | COC(=O)/C=C1/C(=O)N/C(=N\c2nc(C)cc(C)n2)N1c1ccc(OC)cc1 | inconclusive: 10.4 µM [inhibitor, single point]
32 | COc1ccc2[nH]c(C)c(C(=O)CN3CC(C)OC(C)C3)c2c1 (stereo not given) | inconclusive: 10.4 µM [inhibitor, partial curve, poor fit]
33 | COc1cc(C2Nc3ccccc3C(=O)N2c2ccccc2OC)ccc1O (stereo not given) | inconclusive: 10.4 µM [inhibitor, single point]
34 | CS(=O)(=O)N1CCN(c2cccc(Cl)n2)CC1 | inconclusive: 1.47 µM [inhibitor, full curve, poor fit]
35 | COc1ccccc1NC(=O)CCCNC(=O)Cn1cnc2sc(C)c(C)c2c1=O | inconclusive: 11.7 µM [inhibitor, single point]
36 | O=C(Nc1ccccc1)c1cccc(N2C(=O)C3C4C=CC(C5CC45)C3C2=O)c1 (stereo not given) | inconclusive: 18.5 µM [inhibitor, partial curve, poor fit]
37 | Cc1ccc(CNC(=O)c2ccc(CNS(=O)(=O)c3ccc4c(c3)C(C)(C)C(=O)N4C)cc2)o1 | inactive
38 | COc1ccc(/C=C(\NC(=O)c2ccc(C)cc2)C(=O)NCCCn2ccnc2)cc1OC | inconclusive: 5.22 µM [inhibitor, partial curve]
39 | COc1ccc(C(=O)CSc2nnc(CNC(=O)c3ccccc3)n2C)cc1 | inconclusive: 18.5 µM [inhibitor, single point]
40 | Cc1noc(C)c1C(=O)OCC(=O)NCc1ccc(Cl)cc1 | inactive
41 | O=C(CN1C(=O)c2ccccc2C1=O)Nc1cccc(S(=O)(=O)Nc2ccccc2Cl)c1 | inactive
42 | CCN(CC)S(=O)(=O)c1ccc(NC(=O)c2ccc(Cl)nc2)cc1 | active: 4.65 µM
43 | CCN(CC)CCC#CC(O)(c1ccccc1)c1ccccc1 | active: 9.28 µM
44 | Cc1ccc(C2(C)CC(C)(C)N(C(=O)CSc3nnc(C)s3)c3ccccc32)cc1 (stereo not given) | inconclusive: 11.7 µM [inhibitor, single point]

Row | Compound | Potency
45 | O=C(NCCC1CCCCN1S(=O)(=O)c1ccc(F)cc1)C(=O)NCc1cccnc1 (stereo not given) | inconclusive: 14.7 µM [inhibitor, partial curve, poor fit]
46 | Nc1cc(N)nc(SCC(=O)N2CCN(S(=O)(=O)c3ccccc3)CC2)n1 | inconclusive: 1.31 µM [inhibitor, partial curve, poor fit]
47 | Cc1ccccc1Nc1nc(N)nc(CSc2nc3ccccc3s2)n1 | inconclusive: 18.5 µM [inhibitor, single point]
48 | CCOc1ccc(N(CC(=O)NC2CC3CCC2C3)S(=O)(=O)c2ccc(C)cc2)cc1 (stereo not given) | inconclusive: 1.65 µM [inhibitor, full curve]
49 | O=c1c2ccccc2nc(/C=C/c2cc(Br)ccc2O)n1CCCO | inconclusive: 2.62 µM [inhibitor, partial curve]
50 | Cc1oc(-c2ccc(Cl)cc2)nc1CN1CCCC(C(=O)N2CCN(C(=O)c3ccco3)CC2)C1 (stereo not given) | inconclusive: 18.5 µM [inhibitor, single point]
51 | O=C(NC1CCCC1)c1ccc(Cl)c(S(=O)(=O)N2CCCCC2)c1 | inactive
52 | COCCn1c(SCCCc2ccccc2)nc2c1c(=O)[nH]c(=O)n2C | inactive
53 | O=C(CN1CCOCC1)N/N=C/c1ccc(C(=O)O)cc1 | inactive
54 | Cc1ccc(-c2[nH]nc3c2C(c2ccccc2OC(=O)N2CCOCC2)C(C#N)=C(N)O3)cc1 (stereo not given) | active: 10.4 µM
55 | CCOC(=O)C1=C(N)OC2=C(C(=O)CC(C)(C)C2)C12C(=O)Nc1ccccc12 (stereo not given) | inconclusive: 1.65 µM [inhibitor, partial curve]
56 | O=C(CNC(=O)c1ccc(N2C(=O)c3ccccc3C2=O)cc1)OCC(=O)c1ccc(Cl)cc1 | inconclusive: 10.4 µM [inhibitor, partial curve, poor fit]
57 | COc1ccccc1-n1ccnc1SCC(=O)NC(C)(C)C | inconclusive: 18.5 µM [inhibitor, single point]
58 | CN(CCc1ccccn1)C(=S)NC(=O)c1ccco1 | inconclusive: 13.1 µM [inhibitor, single point]
59 | Cc1c(CCC(=O)O)c(=O)oc2cc3occ(-c4ccccc4)c3cc12 | inconclusive: 10.4 µM [inhibitor, partial curve, poor fit]
60 | O=C(Nc1ccc2c(c1)CCCN2C(=O)c1ccccc1)c1ccccc1 | inconclusive: 16.5 µM [inhibitor, partial curve, poor fit]
61 | COc1cc(/C=N/NC(=O)c2sc(N)c(C#N)c2C)cc(Br)c1O | inconclusive: 9.28 µM [inhibitor, partial curve, poor fit]
62 | CNC(=O)c1ccsc1NC(=O)c1ccccc1 | inconclusive: 10.4 µM [inhibitor, single point]
63 | CC(C)OCCCNC(=O)CCCC(=O)Nc1ccc(OCCc2ccccc2)cc1 | inconclusive: 13.1 µM [inhibitor, single point]
64 | CCOC(=O)C1=C(c2ccccc2)NC(SCC(=O)Nc2cccc(C)c2)=C(C#N)C1c1ccco1 (stereo not given) | inactive
65 | COc1ccc(S(=O)(=O)NCc2ccccn2)c(Cl)c1Cl | inconclusive: 10.4 µM [inhibitor, single point]
